Measurements published in patent US12357702B2 (S. M. Discovery Group Inc., priority 2013, dated 2025).
Strings that start with PEPTIDE1 are HELM notation: dots part the residues, brackets hold end groups and non-standard residues. Where no end group is shown, it is not given here. The star is where a group is joined. 5FAM = O=C1OC2(c3ccc(O)cc3Oc3cc(O)ccc32)c2ccc(C(=O)*)cc21

Assay: peptide synthesis
Settings: whole synthesis, analytical HPLC

Row | Substance | purity (crude or final not stated)
1 | 5FAM-CGYRPVHNIRGHGAPG | 98.26%
2 | Cys-Gly-Tyr-Arg-Pro-Val-His-Asn-Ile-Arg-Gly-His-Trp-Ala-Pro-Gly-Lys-5-FAM (CGYRPVHNIRGHWAPGK; C-terminal 5-FAM; artificial peptide CGY-FAM; SITE 17 misc_feature - a fluorophore (e.g., 5-FAM) is attached to Lys) | 98.36%
3 | 5FAM-CGYRPVHNIGHWRAPG | 98.56%
4 | CGYRPVHNIRGHWAPG | 98.11%
5 | PEPTIDE1{[5FAM].C.G.Y.R.P.V.H.N.I.R.G.H.W.A.P.G}$$$$V2.0 | 98.91%
